Results are given in words; binding and its absence hold for the method and conditions named. In cells and extracts the contact can be indirect. A yes stands for co-enrichment or nearness to the bait. Other partners may have been found. One block for each molecule: values may come before it.
Target: Wdr92-mVenus fusion protein (Drosophila melanogaster) (UniProt Q9VVM7)
Experiment: affinity purification with mass spectrometry; GFP-Trap_A beads on lysates of adult testes of Wdr92-mVenus or Spag1-mVenus males, 3 h at 4°C; lysis buffer 50 mM Tris-HCl pH 7.5, 100 mM NaCl, 10% glycerol, 5 mM EDTA, 0.15% Triton X-100, 0.5% sodium deoxycholate; control Gap43-mVenus testes; on-bead digest, label-free quantification

Chains of the proteins cited; added tags and fusions are not shown. Lines headed by an entry give the natural chain unless they say otherwise; changes in a name come on top.
UniProt Q9VVM7: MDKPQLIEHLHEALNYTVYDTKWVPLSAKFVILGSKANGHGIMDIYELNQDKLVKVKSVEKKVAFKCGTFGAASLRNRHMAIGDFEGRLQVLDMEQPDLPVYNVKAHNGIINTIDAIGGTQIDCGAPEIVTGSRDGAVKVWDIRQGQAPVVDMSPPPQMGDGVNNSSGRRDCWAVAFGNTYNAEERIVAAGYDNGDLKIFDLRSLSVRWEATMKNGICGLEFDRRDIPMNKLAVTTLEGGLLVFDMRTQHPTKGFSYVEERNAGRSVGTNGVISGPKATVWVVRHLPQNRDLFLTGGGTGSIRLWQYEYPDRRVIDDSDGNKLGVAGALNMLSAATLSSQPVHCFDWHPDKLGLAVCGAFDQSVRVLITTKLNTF
UniProt A1ZBP5: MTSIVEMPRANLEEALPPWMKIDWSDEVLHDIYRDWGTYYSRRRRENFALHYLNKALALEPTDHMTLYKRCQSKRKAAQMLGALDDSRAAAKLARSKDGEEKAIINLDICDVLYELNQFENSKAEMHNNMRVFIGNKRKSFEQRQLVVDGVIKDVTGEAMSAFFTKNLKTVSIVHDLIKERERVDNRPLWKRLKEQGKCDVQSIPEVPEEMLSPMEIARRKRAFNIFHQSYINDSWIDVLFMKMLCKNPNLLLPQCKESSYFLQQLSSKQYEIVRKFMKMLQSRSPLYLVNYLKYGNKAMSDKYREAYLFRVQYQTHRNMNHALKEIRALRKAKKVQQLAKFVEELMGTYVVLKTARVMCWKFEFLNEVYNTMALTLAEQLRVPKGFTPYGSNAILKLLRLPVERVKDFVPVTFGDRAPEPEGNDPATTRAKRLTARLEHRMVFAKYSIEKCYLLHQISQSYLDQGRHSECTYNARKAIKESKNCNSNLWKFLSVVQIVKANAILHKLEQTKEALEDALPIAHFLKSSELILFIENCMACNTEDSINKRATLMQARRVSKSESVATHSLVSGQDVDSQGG
UniProt A1Z8T9: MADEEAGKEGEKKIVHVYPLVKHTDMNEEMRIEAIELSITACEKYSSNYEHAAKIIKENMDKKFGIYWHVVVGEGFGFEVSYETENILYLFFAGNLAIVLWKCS
UniProt Q9VJY4: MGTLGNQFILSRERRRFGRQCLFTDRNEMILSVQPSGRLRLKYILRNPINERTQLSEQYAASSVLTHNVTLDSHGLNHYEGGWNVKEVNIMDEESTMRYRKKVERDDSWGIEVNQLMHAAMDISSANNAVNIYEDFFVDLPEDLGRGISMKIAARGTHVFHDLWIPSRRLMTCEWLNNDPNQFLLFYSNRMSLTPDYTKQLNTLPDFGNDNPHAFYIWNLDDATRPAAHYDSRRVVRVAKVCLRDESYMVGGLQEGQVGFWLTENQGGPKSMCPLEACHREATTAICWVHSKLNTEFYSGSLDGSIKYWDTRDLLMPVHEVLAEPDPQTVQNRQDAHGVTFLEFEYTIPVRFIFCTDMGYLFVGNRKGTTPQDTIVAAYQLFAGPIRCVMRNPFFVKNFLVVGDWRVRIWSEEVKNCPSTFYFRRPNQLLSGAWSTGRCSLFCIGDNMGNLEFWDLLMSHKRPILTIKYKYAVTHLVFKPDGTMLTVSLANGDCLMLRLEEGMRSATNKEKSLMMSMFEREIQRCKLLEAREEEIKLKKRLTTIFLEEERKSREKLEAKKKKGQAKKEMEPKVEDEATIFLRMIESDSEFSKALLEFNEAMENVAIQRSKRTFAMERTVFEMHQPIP
UniProt Q0KI89: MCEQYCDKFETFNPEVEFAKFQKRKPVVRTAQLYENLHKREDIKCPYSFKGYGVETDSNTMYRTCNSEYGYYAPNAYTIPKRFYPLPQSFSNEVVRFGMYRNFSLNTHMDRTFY
UniProt Q7KVA7: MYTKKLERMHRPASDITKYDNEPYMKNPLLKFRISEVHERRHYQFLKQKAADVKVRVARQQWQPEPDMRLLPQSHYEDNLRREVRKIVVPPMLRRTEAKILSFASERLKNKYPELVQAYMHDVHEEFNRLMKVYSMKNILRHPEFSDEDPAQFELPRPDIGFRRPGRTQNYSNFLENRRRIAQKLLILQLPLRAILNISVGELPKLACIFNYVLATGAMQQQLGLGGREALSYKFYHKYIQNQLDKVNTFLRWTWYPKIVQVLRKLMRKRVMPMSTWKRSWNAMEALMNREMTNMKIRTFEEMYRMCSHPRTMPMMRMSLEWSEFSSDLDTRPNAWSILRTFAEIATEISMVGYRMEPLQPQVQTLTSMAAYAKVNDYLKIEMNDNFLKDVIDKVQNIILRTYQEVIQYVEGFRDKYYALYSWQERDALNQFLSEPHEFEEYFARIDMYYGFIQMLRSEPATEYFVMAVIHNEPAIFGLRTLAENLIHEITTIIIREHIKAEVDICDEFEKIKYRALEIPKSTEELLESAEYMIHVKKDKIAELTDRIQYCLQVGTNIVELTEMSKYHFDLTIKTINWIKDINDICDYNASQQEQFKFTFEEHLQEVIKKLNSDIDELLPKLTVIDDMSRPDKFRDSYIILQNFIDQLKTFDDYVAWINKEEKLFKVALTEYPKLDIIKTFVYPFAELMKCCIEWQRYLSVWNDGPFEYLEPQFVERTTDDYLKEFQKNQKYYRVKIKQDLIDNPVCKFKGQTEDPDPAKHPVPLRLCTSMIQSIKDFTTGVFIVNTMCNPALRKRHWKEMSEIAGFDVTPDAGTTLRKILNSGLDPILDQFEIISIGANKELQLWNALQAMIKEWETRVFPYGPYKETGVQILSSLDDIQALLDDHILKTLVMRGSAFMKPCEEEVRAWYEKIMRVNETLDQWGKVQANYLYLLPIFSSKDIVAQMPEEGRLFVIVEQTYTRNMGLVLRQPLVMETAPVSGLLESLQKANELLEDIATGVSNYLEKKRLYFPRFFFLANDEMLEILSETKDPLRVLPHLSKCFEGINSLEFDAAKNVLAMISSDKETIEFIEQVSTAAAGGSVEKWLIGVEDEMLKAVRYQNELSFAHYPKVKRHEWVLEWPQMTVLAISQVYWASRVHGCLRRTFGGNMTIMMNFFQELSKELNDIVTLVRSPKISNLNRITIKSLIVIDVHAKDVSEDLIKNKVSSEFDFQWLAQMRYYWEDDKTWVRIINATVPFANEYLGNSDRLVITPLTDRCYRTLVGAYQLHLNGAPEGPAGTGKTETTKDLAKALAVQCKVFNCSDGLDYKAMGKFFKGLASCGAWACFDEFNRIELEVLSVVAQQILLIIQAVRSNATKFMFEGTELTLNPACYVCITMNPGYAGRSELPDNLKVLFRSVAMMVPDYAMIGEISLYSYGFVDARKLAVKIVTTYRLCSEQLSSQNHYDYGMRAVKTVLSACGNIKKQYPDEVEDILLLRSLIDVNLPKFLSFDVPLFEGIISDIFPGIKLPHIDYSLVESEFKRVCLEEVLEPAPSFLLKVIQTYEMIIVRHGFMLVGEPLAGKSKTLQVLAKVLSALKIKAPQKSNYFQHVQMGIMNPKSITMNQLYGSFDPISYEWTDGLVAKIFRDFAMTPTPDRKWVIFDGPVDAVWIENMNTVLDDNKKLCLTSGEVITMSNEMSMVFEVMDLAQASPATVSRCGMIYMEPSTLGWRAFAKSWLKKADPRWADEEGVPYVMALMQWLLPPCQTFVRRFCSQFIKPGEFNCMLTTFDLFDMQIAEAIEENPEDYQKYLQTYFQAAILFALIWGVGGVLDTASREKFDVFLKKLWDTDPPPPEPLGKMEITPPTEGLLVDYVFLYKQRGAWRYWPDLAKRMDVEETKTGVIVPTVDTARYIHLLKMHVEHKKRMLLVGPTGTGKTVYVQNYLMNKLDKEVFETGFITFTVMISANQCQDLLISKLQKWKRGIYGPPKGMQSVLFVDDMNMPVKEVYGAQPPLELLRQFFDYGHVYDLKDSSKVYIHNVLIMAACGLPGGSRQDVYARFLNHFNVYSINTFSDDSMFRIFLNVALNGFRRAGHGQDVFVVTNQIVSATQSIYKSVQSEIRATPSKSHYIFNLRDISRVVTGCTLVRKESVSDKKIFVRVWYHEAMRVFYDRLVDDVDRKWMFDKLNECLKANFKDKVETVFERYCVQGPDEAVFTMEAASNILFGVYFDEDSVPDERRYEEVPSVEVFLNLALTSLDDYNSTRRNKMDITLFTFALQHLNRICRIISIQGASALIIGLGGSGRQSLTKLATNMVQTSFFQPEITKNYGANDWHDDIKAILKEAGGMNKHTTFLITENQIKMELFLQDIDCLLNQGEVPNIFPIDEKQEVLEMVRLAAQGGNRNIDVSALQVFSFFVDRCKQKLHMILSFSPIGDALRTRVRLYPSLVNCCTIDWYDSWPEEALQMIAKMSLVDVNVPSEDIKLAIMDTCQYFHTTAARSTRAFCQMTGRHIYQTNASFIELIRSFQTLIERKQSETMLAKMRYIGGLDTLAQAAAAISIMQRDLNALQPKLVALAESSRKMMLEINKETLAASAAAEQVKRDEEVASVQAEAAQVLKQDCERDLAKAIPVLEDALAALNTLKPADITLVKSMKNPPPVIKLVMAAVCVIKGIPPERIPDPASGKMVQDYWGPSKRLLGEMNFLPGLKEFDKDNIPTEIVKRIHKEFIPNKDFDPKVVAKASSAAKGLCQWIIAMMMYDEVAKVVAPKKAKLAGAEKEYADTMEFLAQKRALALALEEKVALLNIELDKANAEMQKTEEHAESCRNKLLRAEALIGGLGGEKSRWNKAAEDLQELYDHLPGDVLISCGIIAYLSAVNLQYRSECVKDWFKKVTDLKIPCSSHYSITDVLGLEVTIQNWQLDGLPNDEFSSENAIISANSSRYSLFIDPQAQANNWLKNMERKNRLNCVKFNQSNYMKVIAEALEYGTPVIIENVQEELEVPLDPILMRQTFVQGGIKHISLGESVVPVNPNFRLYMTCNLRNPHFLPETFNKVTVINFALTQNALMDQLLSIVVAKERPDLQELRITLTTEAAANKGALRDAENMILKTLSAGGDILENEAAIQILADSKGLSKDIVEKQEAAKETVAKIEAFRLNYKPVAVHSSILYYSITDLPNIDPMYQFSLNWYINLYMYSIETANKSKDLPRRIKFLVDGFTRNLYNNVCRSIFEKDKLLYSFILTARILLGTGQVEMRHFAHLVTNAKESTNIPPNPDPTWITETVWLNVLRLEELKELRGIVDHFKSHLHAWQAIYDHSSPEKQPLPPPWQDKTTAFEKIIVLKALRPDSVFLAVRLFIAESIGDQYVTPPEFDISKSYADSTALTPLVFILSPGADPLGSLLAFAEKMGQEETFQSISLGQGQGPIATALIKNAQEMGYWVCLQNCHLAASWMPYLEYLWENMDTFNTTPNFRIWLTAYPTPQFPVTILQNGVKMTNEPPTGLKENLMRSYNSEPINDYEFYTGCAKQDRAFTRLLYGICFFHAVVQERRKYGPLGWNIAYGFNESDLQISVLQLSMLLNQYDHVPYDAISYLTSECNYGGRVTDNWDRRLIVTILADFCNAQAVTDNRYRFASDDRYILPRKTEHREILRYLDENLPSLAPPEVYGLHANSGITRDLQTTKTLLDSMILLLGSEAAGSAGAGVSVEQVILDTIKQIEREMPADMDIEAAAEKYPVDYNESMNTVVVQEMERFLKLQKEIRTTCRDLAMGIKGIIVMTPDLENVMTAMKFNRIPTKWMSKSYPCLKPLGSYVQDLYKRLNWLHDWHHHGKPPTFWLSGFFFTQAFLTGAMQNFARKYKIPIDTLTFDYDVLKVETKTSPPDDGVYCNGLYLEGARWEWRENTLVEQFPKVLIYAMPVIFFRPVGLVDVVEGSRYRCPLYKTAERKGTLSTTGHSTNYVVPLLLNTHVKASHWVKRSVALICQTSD
UniProt Q9V3E9: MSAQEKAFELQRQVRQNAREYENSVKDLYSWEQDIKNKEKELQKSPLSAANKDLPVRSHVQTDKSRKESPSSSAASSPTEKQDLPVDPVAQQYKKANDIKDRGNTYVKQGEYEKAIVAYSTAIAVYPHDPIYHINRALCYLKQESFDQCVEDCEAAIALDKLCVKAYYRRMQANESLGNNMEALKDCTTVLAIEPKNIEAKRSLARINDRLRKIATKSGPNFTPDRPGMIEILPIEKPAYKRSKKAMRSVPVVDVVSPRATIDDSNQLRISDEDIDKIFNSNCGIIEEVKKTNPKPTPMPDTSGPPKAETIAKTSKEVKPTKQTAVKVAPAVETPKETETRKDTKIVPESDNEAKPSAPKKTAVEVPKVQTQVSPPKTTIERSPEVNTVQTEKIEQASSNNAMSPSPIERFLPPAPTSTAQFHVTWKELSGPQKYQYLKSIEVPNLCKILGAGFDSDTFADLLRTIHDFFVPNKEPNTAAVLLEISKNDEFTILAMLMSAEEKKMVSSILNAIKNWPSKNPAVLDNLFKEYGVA
UniProt Q05547: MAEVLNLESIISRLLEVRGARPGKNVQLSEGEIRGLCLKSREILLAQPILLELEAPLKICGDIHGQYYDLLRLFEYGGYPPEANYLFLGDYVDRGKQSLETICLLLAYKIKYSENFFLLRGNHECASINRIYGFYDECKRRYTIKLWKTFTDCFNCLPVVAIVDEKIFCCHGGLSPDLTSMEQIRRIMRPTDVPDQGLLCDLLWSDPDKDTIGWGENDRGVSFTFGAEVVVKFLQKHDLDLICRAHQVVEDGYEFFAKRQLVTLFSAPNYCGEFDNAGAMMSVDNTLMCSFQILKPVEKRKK

binding: binds
Molecule: CG15128 (from UniProt A1ZBP5)

binding: binds
Molecule: Zipper (from UniProt Q99323 1-2056)

binding: binds
B1: CG9313 (protein, UniProt Q8MSJ9 1-739)
chain: MATKPGKGDGKQVKGKRTSKNKTDGPGGGGGDADDFDAWMKSRQLLKPDDQLDLTEAELGEEITKVLTPTNTNIVRNLVVYSFKEGEFVPAPLPGNTVTLIAFAGNSLHVDSDEGRRQIEESDEIGYPLPMPNYTVVEQRETDNVDGEEGEGEEDDDGATAKDAAVEDEDVEEEDDEEAKGTEGDEGEGEGEGEGAAARQEDDEPAHQAAAVSSKKRKLINQFNYCERGALTYTNPKRNVDTQTIPPPRSQFGANVLQWVIYDSYMENFAESQKDGTKKEERKRGKREKKFRDKSAIAEQLNKKYLKCWQILERMINQNIYDDIAHDYRYWEDPADEFREGEGNLLPLWKFQYDKTKKMNVTDILFNPSYYDLFAVCFGSHDFMKQTNEGYLCLFTVKNPSFPDYIIQTDCGVMCCDIHPTYPFLAVIGLYDGNVAVYNLREDCKEPLYVSRGVNCKHGECVWQIKWGLDMADGEVNFFSVSSDGRVFNWILMQNKLWVTTIITLYRENGLVDGPDGTKVTLKSGGSCMVFHPVDNKIFLVGTECGYIYKCSTAFSSKYLMTYYAHNMSVYRIDFNRFNSNIFVSCGADWMVKVWEDMRPDPLFIFDLGAAVGDVKWAPYSSTVFAAVTTEGKVHVFDLNVNKYKAICIQAVVPKRKNKLTRLSFNEKLAFIVVGDEKGVTTSLKLSPNLRMMVKPPKKQLYLDQNTLQIGKLEKLLSLVRELPEGSTAVPDAATTVRS

binding: binds
B3: CG7770 (protein, UniProt Q9VW56 1-125)
chain: MDKKSAALYKKMQAEIESYQNLQKSCLKMVKQRAVLESQLNENKCVLDELNLLGPDNKVYKLFGPVLVKQELEESRQNVGKRIEYISKELKSSTDALENMEKDMLKHRESVAKYQQQCQVAAAMQ

binding: binds
B6: CG18472 (protein, UniProt Q9VBA1 1-469)
chain: MEKEKKKSLLERYNIPIHYLDFAHVEKCTNAREMEKIVQILRSGEEGHYPDLQRCAEEKLKALKPDSKLFRYEEQIKQSTDLDKTELKPILDWTDAIKTKDNALNELKKVKQNLNLPSVRKLSKIDLEKESKTEKPKPAPKATSPSNTKNKEARIKSTDYRKWDKYDPDEEILRMDLNEERDQEQREKIISNHSKSVTTDKLQSERDSLYERLQAQLKNLSQLEKEQFAERHRLRGNESFKAKEYENAIEEYNCSIIYDPENAVHAYNNRAVAHLKLKKYFSAISDCQACLQIDPMNIKAHLRMAEAHNAEGKHLESLNVYKKLLDFEPDNAIAKKAVEKLTSMLGEVAPSSATRLIIEEIDPPQLKTSEPKKEAEKSEPTVVKKPEPVVSAKKPPPIKDYDLAELVKPNRMVKSNLVSAAEALGNKMQASKGGAPKKPQSPPMTPKETLLRLPQDNLNNSNKLLIQEI

binding: binds
B8: CG3121 (protein, UniProt Q9W1D3 1-708)
chain: MDRDSCQNFSLDSTSSSHFAPPPVCAPRRKKPEKPAAEEASPECSNVTSSSSSSTTTISIGAFDSQCNLHNARNPEAPNIGYELNVAKSILQKYSTLSGDNLFDHLSDIIKRVIDERPPNVIDFFEEFSRNVREQKFHLPERFPPSGVFDEVRSFRVAKKILQSMKLPYVVEGEDLMGEDLSVEDLRTNEDMRIVIDDSMRYFVTFNERVQQLQFYWTQCGFSISNDDIFQLASAMNRLQTHPSIMQCRFWGCINGLKASYYIVEASLTREEIASRLVMMEEEMRQKQIPFPMRKDREDKPPPAHIGPELTPGIYGWEEFPPEELEKMKPKAAPVPLVEEMELYDIPPEFIGKGCNRYSYFVVNSLFDDWIELPIVTPRQIVVSRQIKKFLTGDLEADVISYPCFPGKEKHYLRTLIGRITAGTYIAPVGYYRRMTKKEQRMFDGEEEEEGEEEEEEEEEEEFNEGEEEQIEDNDVMLLKNEKYEAEPLGSLATPVAWVHVRSNILNQQGRVVWYDEEKARKEREKALALYLKMQMLGEMEEEVEEEEDEEEGEEEGEEEGMIEGFNQPELGPSILSSCANDMNPEVPVSWLARMTSKYTNQKERMLVMQSNVWPGAYTFIFEKTCESIYLGWGHKYYARNIPFKHLPMVQEEFPHNPEDFVEANDPTVEEEEAYKAWLLRKQQKAEYVAEDIEDYDDDEFADQYDDD

The next lines start with the molecule.

Molecule: CG8407 (from UniProt A1Z8T9)
binding: binds

Molecule: CG10859 (from UniProt Q9VJY4)
binding: binds

Molecule: CG34107 (from UniProt Q0KI89)
binding: binds

Molecule: Dhc62B (from UniProt Q7KVA7 1-3964)
binding: binds

Molecule: Spaghetti (from UniProt Q9V3E9)
binding: binds

Molecule: pp1-13C (from UniProt Q05547 1-302)
binding: binds

B2: Uri (protein, UniProt Q9W148 1-731)
chain: MDRREDALLQALQTNASETERWEAFKRDNESTIRNLDKFAKNLSVEVMVPIGRKALMPGELIHTNELLVGHYEGYFSACSSHKAKEICQYRLKLAEEQLKKLAVENDLWQKKLHTPFAEGAVPSGDQVEIVEDFNEESHNKWLAEHRKRMRQQKQKERLEREAEPVKKDNEVLRKLEEREMMEELGLDPDNIDEDQLHDMLNQEPLKSTNESSPKSLTQEEEDELWKKLEAEEQNEADELSSEAEESLKTTDNLVRQLMSGETETPSSKKRTAGTNRNVEIQDPISEDDGDDDDEGDQEEEVRTIREQMSLLPNEDREPFLRAQLHVLKAKMRKIQKVNFISDELIHLMNVVVMLEDDLQDLVFEQELEASEEEEEVVENNHLPDEPSKELSTVSESSTNKRRISFALDDEKLEFRREETVAEMLPNAKKNSRDIIKLNAPLKPAGDPQPASIKTKRQTTQDILQKVERNIEFVKENQSVQDFDLLNRIMEESTGLINTLHISFTHSGAIPSPSSDQSDGIPGKPSDFYVRYEKDRARPNDSFPIYVNGFEGEEHVKVPIMSEAARGSAYEDPRSQFSKPNSSEICFTHSGSITPTSNDQSDDIPGNPFDFYEKYEKDRAKFSKSNSSEGDATDPESATKSILRNKSAVDLEPHNVNQQPKKGRKVRNQKKKERTLDDDLRDMSAYQKVMHDLVEKEPTAPEPLPPGKFIDSHAPKKRVSRFKEQRALNKT
binding: binds

B4: CG31802 (protein, UniProt Q8T415 1-186)
chain: MSGKRLGSMVSSASVMHSSASISSRAKKSKKPKLPTFDLSLSQKVDIKKAFDLFDTQCTGFIETKELRVAIRALGFEPKKEDIKRMMDEIDKDKTGRIAFNDFLYLMRLKMAEKDSNQDMMKAFSFFDDDRTGGISFLNLKRVAKELGEQLTDEELQEMIDEANVSGDGEVSKEEFLNLIKKTNLI
binding: binds

B5: CG15863 (protein, UniProt Q4QQ01 1-132)
chain: MSQTDLNKSIEIITKTEELADKILVNKQELTVMDKRRQETRQAMRLMEKSEDKKVWITIGSMLVKMEREKALELLKKDQQKIEQQINLIYSDQKVLVNKHRDLEFKSPFSGTHLKPLEKKEFDALKANLPLL
binding: binds

B7: CG5458 (protein, UniProt Q9VK29 1-344)
chain: MAMTEMSEEDLSAPEEEEDLGPNIGLYIGGRNAAGQRQGRGWAILPNGDQYDGNYRKGRRHGIGVYVFKDGSRYYGQYRCGKRCGRGIFIYPDGSVYEGNWRKNLKHGKGRYKYVNGDNYSGDWFKGQRHGVGIYHFNSGKDGCCLSVRMKATWNSNMRTGPFELYIGNEDKCTILHGIWDNLYPSGPAVFSFNNRYLLLGYFLPASYNMKAISNEDEMEDAEERLEDEMGEAEPMEPTLWFAQEMAVYDFSLLPQEPVPLAISDSELSVCSLSTEPSMRSEEKISWYGEGEEAEGEEGGEMECFPCECDLTDVSEVETESEVCKIDANPCCIEILKQPECPDP
binding: binds
